Source: publication doi:10.1101/2022.10.06.511211
These are yes or no findings as the source states them, for the method shown. In cells and extracts the contact can be indirect. Here binding means that the protein was enriched with, or labelled near, the bait; the list need not be complete. For part of these data: Where a sequence is shown, tags or fusion partners need not be part of it.

Amino acid sequences for entries named in this document (tags omitted). Residues count along the entry.
UniProt Q4ACU6: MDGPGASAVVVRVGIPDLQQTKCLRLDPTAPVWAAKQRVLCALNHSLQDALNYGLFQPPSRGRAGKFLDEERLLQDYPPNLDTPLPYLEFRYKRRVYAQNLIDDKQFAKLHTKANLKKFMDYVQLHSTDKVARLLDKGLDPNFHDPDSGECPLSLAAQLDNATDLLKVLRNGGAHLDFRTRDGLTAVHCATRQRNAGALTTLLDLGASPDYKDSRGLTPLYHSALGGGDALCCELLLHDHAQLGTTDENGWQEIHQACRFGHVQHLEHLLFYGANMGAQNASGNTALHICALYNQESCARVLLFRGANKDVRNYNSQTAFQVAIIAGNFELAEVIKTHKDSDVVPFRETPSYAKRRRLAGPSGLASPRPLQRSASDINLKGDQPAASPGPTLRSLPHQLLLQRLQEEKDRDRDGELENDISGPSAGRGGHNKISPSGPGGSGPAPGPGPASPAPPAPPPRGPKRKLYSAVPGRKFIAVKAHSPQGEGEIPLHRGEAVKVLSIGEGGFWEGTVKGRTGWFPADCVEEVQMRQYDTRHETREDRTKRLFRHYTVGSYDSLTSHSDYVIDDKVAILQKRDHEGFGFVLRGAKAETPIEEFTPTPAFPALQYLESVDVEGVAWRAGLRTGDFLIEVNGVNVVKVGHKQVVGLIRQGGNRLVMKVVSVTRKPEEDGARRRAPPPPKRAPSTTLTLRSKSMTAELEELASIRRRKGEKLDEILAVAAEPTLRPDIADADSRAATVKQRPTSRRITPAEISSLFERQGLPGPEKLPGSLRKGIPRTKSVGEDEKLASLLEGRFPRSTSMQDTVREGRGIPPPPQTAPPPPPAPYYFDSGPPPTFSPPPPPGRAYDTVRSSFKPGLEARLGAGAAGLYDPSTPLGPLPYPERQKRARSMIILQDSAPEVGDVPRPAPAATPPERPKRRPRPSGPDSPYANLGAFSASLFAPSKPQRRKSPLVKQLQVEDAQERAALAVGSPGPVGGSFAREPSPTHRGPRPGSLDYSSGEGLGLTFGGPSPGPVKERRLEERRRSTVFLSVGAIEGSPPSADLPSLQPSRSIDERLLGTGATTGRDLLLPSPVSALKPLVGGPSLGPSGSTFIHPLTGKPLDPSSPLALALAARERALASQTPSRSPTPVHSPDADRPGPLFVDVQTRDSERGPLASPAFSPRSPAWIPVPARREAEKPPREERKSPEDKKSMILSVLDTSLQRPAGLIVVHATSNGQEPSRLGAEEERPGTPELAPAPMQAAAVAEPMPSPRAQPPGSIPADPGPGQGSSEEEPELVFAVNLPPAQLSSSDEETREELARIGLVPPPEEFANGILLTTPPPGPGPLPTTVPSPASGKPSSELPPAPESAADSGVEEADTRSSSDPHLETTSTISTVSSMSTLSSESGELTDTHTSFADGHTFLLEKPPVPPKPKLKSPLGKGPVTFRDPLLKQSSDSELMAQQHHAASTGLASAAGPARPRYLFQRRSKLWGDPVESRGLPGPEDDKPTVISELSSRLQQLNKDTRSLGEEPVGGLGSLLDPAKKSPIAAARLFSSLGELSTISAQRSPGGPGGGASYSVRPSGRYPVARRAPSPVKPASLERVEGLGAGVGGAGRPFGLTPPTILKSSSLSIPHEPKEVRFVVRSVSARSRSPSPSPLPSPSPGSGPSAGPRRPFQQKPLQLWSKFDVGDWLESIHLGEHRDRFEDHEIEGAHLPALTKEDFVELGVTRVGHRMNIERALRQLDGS
UniProt Q00PI9: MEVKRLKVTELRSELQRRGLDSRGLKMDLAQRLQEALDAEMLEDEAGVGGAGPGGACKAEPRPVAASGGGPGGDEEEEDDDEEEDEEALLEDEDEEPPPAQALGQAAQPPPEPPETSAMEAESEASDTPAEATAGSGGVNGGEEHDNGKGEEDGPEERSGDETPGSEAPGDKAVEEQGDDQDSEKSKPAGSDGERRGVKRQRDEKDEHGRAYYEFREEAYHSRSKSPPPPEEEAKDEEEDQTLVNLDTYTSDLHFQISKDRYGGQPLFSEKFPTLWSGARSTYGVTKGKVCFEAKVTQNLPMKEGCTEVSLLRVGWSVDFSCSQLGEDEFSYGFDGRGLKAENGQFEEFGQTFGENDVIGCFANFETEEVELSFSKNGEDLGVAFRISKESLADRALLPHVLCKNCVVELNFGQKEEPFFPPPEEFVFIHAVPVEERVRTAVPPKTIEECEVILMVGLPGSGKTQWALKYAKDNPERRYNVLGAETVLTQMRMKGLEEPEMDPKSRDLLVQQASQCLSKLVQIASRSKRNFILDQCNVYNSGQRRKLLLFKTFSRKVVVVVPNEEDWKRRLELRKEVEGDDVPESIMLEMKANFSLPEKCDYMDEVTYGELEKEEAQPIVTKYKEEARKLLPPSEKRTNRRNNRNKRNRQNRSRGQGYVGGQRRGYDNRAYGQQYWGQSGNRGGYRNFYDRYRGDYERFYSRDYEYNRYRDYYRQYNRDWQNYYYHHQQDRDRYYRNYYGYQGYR
UniProt Q8CJ19: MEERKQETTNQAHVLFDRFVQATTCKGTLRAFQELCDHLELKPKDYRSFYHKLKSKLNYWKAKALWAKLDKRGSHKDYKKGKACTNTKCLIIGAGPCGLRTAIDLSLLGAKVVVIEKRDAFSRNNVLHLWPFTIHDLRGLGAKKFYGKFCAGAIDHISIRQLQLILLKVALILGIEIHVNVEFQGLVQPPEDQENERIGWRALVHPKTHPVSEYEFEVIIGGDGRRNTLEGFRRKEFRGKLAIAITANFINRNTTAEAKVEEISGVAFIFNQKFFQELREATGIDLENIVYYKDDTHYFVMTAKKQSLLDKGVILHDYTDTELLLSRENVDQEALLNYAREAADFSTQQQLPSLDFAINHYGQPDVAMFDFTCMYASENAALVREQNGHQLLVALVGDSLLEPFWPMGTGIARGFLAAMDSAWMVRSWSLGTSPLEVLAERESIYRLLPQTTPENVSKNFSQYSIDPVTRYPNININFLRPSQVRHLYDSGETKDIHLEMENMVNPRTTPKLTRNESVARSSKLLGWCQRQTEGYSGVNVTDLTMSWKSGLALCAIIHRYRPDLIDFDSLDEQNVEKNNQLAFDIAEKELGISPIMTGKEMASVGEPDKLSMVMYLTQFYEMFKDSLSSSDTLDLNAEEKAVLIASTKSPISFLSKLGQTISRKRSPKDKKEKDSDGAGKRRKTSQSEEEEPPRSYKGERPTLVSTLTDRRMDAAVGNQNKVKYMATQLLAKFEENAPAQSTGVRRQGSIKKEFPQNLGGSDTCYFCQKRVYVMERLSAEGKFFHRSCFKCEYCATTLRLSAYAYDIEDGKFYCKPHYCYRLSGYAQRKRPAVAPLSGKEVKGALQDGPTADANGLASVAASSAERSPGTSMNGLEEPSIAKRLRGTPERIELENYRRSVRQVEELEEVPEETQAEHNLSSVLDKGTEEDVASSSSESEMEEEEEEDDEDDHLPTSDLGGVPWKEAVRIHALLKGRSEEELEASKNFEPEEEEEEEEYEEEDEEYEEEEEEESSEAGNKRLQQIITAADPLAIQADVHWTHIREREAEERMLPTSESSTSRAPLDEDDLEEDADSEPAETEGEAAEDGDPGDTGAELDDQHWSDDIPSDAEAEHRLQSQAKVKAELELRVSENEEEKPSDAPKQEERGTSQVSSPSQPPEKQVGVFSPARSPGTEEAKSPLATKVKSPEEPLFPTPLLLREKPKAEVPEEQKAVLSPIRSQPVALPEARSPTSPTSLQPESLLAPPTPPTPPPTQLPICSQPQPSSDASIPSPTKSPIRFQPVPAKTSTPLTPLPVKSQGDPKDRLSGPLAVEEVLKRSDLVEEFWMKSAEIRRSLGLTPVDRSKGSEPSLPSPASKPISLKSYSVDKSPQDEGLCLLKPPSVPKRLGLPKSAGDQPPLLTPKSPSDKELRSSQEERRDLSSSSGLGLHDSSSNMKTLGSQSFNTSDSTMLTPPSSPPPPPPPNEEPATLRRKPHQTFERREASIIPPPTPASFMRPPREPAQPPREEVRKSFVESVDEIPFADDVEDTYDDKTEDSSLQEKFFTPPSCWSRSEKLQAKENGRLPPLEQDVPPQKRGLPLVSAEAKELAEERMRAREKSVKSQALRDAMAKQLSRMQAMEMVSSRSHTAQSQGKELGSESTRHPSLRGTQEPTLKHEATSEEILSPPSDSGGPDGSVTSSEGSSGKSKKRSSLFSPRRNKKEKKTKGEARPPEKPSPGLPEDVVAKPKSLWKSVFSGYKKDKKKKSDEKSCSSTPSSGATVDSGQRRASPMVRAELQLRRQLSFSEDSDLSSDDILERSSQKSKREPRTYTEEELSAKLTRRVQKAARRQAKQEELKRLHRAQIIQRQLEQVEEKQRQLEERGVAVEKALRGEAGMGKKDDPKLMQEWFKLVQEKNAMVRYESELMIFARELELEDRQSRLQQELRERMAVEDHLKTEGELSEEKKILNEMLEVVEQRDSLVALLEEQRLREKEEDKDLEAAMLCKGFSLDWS
UniProt Q6VNS1, residues 32-825: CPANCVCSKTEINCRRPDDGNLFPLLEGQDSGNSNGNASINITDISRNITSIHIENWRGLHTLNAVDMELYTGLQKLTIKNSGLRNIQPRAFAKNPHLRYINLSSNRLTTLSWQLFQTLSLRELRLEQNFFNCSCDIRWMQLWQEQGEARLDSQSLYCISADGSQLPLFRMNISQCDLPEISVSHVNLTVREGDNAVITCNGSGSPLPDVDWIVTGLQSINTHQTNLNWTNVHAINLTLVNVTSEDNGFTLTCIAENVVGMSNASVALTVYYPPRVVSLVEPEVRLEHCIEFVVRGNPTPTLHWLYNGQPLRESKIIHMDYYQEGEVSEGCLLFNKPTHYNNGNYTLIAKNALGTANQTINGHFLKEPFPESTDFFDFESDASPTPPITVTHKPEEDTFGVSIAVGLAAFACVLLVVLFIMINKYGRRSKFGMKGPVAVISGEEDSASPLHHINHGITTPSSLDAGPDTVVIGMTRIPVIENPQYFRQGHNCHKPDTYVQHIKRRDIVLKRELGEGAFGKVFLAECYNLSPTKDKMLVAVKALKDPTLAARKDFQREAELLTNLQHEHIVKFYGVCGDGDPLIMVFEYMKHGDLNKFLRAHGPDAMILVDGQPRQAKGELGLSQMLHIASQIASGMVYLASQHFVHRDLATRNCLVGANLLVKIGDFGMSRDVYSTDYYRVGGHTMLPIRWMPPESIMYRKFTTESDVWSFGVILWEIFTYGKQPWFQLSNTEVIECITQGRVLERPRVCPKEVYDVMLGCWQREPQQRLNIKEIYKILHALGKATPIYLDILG
UniProt Q8CIN4: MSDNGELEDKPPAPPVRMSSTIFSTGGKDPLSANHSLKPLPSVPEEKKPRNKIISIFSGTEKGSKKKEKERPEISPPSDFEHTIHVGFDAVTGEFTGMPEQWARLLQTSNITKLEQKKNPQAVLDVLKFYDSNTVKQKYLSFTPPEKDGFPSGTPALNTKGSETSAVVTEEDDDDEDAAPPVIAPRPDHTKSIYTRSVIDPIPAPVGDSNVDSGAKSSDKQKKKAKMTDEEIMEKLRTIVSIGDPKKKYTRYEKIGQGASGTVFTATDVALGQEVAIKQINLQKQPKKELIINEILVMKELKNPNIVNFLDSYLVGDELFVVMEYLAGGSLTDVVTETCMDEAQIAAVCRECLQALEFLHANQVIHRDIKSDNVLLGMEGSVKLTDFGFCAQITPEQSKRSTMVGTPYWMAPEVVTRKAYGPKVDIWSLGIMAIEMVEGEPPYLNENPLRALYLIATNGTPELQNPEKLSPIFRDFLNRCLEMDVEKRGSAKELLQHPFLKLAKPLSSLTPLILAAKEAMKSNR
UniProt Q9CZN4, residues 24-424: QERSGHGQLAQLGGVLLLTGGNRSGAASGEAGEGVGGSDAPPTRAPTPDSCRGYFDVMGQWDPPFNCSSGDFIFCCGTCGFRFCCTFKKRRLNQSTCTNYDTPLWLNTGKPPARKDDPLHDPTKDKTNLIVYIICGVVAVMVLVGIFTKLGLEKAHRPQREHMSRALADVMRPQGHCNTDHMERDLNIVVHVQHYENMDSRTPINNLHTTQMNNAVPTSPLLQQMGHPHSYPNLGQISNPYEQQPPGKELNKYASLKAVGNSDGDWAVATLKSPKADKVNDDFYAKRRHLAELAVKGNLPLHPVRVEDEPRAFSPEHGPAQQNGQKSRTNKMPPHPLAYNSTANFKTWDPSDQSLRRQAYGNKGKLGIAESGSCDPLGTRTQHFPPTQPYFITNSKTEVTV

Key:
Assay in all cases: proximity labelling
[1] = biological target: T1, Anks1b (mouse, endogenous, TurboID-HA knock-in) (mouse (endogenous in forebrain)) (UniProt Q8BIZ1)
T1 sequence: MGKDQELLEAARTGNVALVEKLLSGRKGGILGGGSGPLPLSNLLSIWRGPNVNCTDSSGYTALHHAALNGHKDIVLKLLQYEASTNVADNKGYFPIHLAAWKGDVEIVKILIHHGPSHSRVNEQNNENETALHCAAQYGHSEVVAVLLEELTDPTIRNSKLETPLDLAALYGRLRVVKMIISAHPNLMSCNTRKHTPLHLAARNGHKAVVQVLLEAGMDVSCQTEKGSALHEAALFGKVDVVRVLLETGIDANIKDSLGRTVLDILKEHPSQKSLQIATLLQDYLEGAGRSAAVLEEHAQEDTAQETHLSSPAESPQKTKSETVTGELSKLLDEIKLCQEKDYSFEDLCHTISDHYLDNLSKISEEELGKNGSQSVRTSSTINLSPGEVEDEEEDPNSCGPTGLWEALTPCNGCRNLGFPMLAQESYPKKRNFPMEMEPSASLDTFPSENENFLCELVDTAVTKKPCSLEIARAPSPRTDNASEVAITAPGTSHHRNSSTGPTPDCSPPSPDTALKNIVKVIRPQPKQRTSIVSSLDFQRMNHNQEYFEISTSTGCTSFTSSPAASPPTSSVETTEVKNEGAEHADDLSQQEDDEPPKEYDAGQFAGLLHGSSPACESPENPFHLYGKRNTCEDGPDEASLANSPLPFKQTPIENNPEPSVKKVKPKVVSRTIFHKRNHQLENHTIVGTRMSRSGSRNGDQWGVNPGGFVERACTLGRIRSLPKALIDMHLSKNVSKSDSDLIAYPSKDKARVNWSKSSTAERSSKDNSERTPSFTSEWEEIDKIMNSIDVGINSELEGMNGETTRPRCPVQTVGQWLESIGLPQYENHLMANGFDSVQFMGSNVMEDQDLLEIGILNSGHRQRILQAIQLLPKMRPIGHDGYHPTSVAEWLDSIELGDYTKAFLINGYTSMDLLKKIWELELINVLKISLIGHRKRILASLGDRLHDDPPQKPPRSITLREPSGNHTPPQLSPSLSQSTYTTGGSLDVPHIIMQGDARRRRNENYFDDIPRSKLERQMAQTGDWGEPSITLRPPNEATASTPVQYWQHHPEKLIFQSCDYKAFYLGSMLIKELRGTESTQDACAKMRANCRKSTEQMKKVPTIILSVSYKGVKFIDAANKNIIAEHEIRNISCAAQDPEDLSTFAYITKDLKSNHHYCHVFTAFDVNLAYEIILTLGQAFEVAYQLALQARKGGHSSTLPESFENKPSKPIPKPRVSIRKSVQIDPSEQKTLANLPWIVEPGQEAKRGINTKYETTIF

[2] = biological target: Syngap1 (mouse, endogenous, TurboID-HA knock-in) (mouse (endogenous in forebrain)) (UniProt F6SEU4)
[3] = biological target: Hnrnpu (mouse, endogenous, TurboID-HA knock-in) (mouse (endogenous in forebrain)) (UniProt Q8VEK3)
[4] = biological target: Shank3 (mouse, endogenous, TurboID-HA knock-in) (mouse (endogenous in forebrain)) (UniProt Q4ACU6)
[5] = biological target: Ank3 (mouse, endogenous, TurboID-HA knock-in) (mouse (endogenous in forebrain)) (UniProt G5E8K5)
[6] = biological target: T2, Syngap1:1-744 (truncated at exon 13, TurboID-HA fusion) (mouse (endogenous in forebrain)) (UniProt F6SEU4)
T2 sequence: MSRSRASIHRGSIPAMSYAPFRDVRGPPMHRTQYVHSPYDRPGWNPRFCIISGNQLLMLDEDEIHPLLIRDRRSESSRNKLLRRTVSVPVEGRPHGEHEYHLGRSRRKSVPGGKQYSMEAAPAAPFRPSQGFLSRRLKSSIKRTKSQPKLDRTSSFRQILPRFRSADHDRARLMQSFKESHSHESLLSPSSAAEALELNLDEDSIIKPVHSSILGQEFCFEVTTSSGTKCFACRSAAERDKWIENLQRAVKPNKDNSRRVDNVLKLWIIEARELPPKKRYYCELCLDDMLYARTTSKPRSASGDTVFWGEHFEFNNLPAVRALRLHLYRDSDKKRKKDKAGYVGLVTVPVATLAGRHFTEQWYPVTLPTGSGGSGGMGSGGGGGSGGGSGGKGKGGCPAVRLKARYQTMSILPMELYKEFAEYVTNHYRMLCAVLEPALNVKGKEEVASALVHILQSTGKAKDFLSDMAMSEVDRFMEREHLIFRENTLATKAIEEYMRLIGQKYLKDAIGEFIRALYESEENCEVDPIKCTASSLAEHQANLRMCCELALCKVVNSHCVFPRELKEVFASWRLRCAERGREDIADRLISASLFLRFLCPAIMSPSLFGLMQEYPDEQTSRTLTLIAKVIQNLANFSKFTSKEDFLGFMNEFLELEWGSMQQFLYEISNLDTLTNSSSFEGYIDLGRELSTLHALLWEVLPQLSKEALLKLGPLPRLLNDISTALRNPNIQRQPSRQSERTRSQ

| Substance | binding [1] | binding [2] | also measured |
| --- | --- | --- | --- |
| Dyrk1a (from UniProt Q61214 1-763) (enzyme) | binds | binds | – |
| Hnrnpul2 (from UniProt Q00PI9 1-745) | – | – | binding [3]: binds |
| Itsn1 (from UniProt Q9Z0R4 1-1714) | – | – | binding [4]: binds; binding [5]: binds |
| Mical3 (from UniProt Q8CJ19 1-1993) | – | – | binding [5]: binds |
| Ntrk3 (from UniProt Q6VNS1 32-825) (receptor) | binds | binds | – |
| Pak2 (from UniProt Q8CIN4 1-524) (enzyme) | binds | binds | – |
| Shisa9 (from UniProt Q9CZN4 24-424) | – | binds | binding [6]: binds |
